# Reference: the supplement of paper PMC4604168 (melanoma cell lines)
# Some of the results follow. Single values are uncertain, as repeats are few or missing.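 The apoptosis fraction was the count of cleaved-PARP antibody-stained nuclei relative to all DNA-stained nuclei, imaged in 1,536-well plates. Screening doses were set so most cells survived, and baseline and induced cleaved-PARP levels vary greatly across cell lines.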
# Assays:
# Assay in all cases: cleaved PARP positive nuclei fraction relative to DMSO control; melanoma cells; higher = more apoptosis
# Conditions in all cases: library dose: low library concentration; 72 h
# MZ2-MEL = test system: MZ2-MEL
# MeWo = test system: MeWo
# RPMI7951 = test system: RPMI7951
# RVH-421 = test system: RVH-421
# SkMel28 = test system: SkMel28
# SkMel2 = test system: SkMel2
# SkMel30 = test system: SkMel30
# UACC62 = test system: UACC62
Structure (SMILES),cleaved PARP positive nuclei fraction (MZ2-MEL) [%],cleaved PARP positive nuclei fraction (MeWo) [%],cleaved PARP positive nuclei fraction (RPMI7951) [%],cleaved PARP positive nuclei fraction (RVH-421) [%],cleaved PARP positive nuclei fraction (SkMel28) [%],cleaved PARP positive nuclei fraction (SkMel2) [%],cleaved PARP positive nuclei fraction (SkMel30) [%],cleaved PARP positive nuclei fraction (UACC62) [%]
"Cn1cc(C2=C(c3cn(C4CCN(Cc5ccccn5)CC4)c4ccccc34)C(=O)NC2=O)c2ccccc21 [Enzastaurin] + OCc1c[nH]c2ccccc12 [Indole-3-carbinol] (first compound 0.8 µM, partner dose 0.8 µM)",47.1,42.2,41.8,95.7,85.7,117,75.4,175
"CS(=O)(=O)c1ccc(C(=O)Nc2ccc(Cl)c(-c3ccccn3)c2)c(Cl)c1 [vismodegib] + C[As](C)SC[C@H](NC(=O)CC[C@H](N)C(=O)O)C(=O)NCC(=O)O [Darinaparsin] (first compound 1 µM, partner dose 0.4 µM)",94.8,82.6,80.5,39.5,76.3,179,156,26
"O=C(Nc1cc(C(F)(F)F)cc(C(F)(F)F)c1)c1cc(Cl)ccc1O + C[As](C)SC[C@H](NC(=O)CC[C@H](N)C(=O)O)C(=O)NCC(=O)O [Darinaparsin] (first compound 0.016 µM, partner dose 0.4 µM)",124,102,173,139,37.6,49.2,31.4,133
"CCCS(=O)(=O)Nc1ccc(F)c(C(=O)c2c[nH]c3ncc(Cl)cc23)c1F + C[As](C)SC[C@H](NC(=O)CC[C@H](N)C(=O)O)C(=O)NCC(=O)O [Darinaparsin] (first compound 0.08 µM, partner dose 0.4 µM)",94.1,88.5,116,133,52.2,100,73,315
"Cn1cc(C2=C(c3cn(C4CCN(Cc5ccccn5)CC4)c4ccccc34)C(=O)NC2=O)c2ccccc21 [Enzastaurin] + Nc1ccn([C@@H]2O[C@H](CO)[C@@H](O)C2(F)F)c(=O)n1 [gemcitabine] (first compound 0.8 µM, partner dose 0.0004 µM)",60.9,137,47.6,194,172,105,56.5,165
"Cn1cc(C2=C(c3cn(C4CCN(Cc5ccccn5)CC4)c4ccccc34)C(=O)NC2=O)c2ccccc21 [Enzastaurin] + Nc1nc(F)nc2c1ncn2[C@@H]1O[C@H](CO)[C@@H](O)[C@@H]1O [fludarabine] (first compound 0.8 µM, partner dose 0.2 µM)",72.5,731,94.5,37.9,52.4,487,416,48.8
"N.N.[Cl][Pt][Cl] [cisplatin] + COCC[n+]1c2c(n(Cc3cnccn3)c1C)C(=O)c1ccccc1C2=O [YM155] (first compound 1.6 µM, partner dose 0.0004 µM)",284,111,51.5,170,78.7,161,157,67.3
"C[As](C)SC[C@H](NC(=O)CC[C@H](N)C(=O)O)C(=O)NCC(=O)O [Darinaparsin] + Nc1cccc2c1CN(C1CCC(=O)NC1=O)C2=O [lenalidomide] (first compound 0.4 µM, partner dose 1 µM)",138,125,73.4,79.7,79.2,121,213,188
"C=CCNC1=C2C[C@@H](C)C[C@H](OC)[C@H](O)[C@@H](C)/C=C(\C)[C@H](OC(N)=O)[C@@H](OC)/C=C\C=C(/C)C(=O)NC(=CC1=O)C2=O [Tanespimycin] + C[As](C)SC[C@H](NC(=O)CC[C@H](N)C(=O)O)C(=O)NCC(=O)O [Darinaparsin] (first compound 0.002 µM, partner dose 0.4 µM)",154,129,112,161,76.7,134,60.5,86.5
"C[C@]1(O)C[C@@H](c2nc(-c3ccc4ccc(-c5ccccc5)nc4c3)c3c(N)nccn32)C1 + N.N.[Cl][Pt][Cl] [cisplatin] (first compound 0.4 µM, partner dose 1.6 µM)",112,104,173,57.8,108,68.4,36.2,26.7
"N.N.[Cl][Pt][Cl] [cisplatin] + CNC(=O)c1cc(Oc2ccc(NC(=O)Nc3ccc(Cl)c(C(F)(F)F)c3)cc2)ccn1 [sorafenib] (first compound 1.6 µM, partner dose 0.4 µM)",108,141,110,86.5,169,116,139,41.8
"CC1(C)CCC(c2ccc(Cl)cc2)=C(CN2CCN(c3ccc(C(=O)NS(=O)(=O)c4ccc(N[C@H](CCN5CCOCC5)CSc5ccccc5)c(S(=O)(=O)C(F)(F)F)c4)cc3)CC2)C1 + N.N.[Cl][Pt][Cl] [cisplatin] (first compound 0.4 µM, partner dose 1.6 µM)",189,502,300,37.1,193,141,121,106
"N.N.[Cl][Pt][Cl] [cisplatin] + O=C(O)c1ccc2c(c1)nc(Nc1cccc(Cl)c1)c1ccncc12 [CX4945] (first compound 1.6 µM, partner dose 0.4 µM)",213,124,127,377,86.1,62.4,51.5,43.5
"N.N.[Cl][Pt][Cl] [cisplatin] + C[C@@H](Oc1cc(-c2cnn(C3CCNCC3)c2)cnc1N)c1c(Cl)ccc(F)c1Cl [Crizotinib] (first compound 1.6 µM, partner dose 0.2 µM)",165,59.9,47.2,58.1,71,136,124,75.9
"N.N.[Cl][Pt][Cl] [cisplatin] + C[As](C)SC[C@H](NC(=O)CC[C@H](N)C(=O)O)C(=O)NCC(=O)O [Darinaparsin] (first compound 1.6 µM, partner dose 0.4 µM)",82.2,94.3,64.3,46.4,77,92.5,56.4,73.2
"Cn1sc(=O)n(Cc2ccccc2)c1=O + C[As](C)SC[C@H](NC(=O)CC[C@H](N)C(=O)O)C(=O)NCC(=O)O [Darinaparsin] (first compound 0.4 µM, partner dose 0.4 µM)",113,69.2,46.1,49.4,34.2,86.4,31.8,99.8
"Cn1cc(C2=C(c3cn(C4CCN(Cc5ccccn5)CC4)c4ccccc34)C(=O)NC2=O)c2ccccc21 [Enzastaurin] + Cn1nnc2c(C(N)=O)ncn2c1=O [temozolomide] (first compound 0.8 µM, partner dose 2 µM)",78.4,51.7,99.6,89.3,87.8,155,23.6,223
"Cc1ccc(Nc2nccc(N(C)c3ccc4c(C)n(C)nc4c3)n2)cc1S(N)(=O)=O [Pazopanib] + Cn1cc(C2=C(c3cn(C4CCN(Cc5ccccn5)CC4)c4ccccc34)C(=O)NC2=O)c2ccccc21 [Enzastaurin] (first compound 0.4 µM, partner dose 0.8 µM)",95.1,54.6,116,88.9,84.2,33.1,69,90.7
"O=C(Nc1cc(C(F)(F)F)cc(C(F)(F)F)c1)c1cc(Cl)ccc1O + N.N.[Cl][Pt][Cl] [cisplatin] (first compound 0.016 µM, partner dose 1.6 µM)",96.7,182,101,114,59.6,133,131,105
"Cn1cc(C2=C(c3cn(C4CCN(Cc5ccccn5)CC4)c4ccccc34)C(=O)NC2=O)c2ccccc21 [Enzastaurin] + COCC[n+]1c2c(n(Cc3cnccn3)c1C)C(=O)c1ccccc1C2=O [YM155] (first compound 0.8 µM, partner dose 0.0004 µM)",335,73.6,156,310,44.7,183,37.2,48.6
"Cn1cnc2c(F)c(Nc3ccc(Br)cc3Cl)c(C(=O)NOCCO)cc21 [selumetinib] + Cn1cc(C2=C(c3cn(C4CCN(Cc5ccccn5)CC4)c4ccccc34)C(=O)NC2=O)c2ccccc21 [Enzastaurin] (first compound 0.015 µM, partner dose 0.8 µM)",162,48.7,57.2,86.5,78.1,133,47.9,81.9
"O=C(/C=C/c1cccnc1)NCCCCC1CCN(C(=O)c2ccccc2)CC1 + N.N.[Cl][Pt][Cl] [cisplatin] (first compound 0.01 µM, partner dose 1.6 µM)",390,68.8,30.3,221,147,2960,36.7,38.5
"Cn1cc(C2=C(c3cn(C4CCN(Cc5ccccn5)CC4)c4ccccc34)C(=O)NC2=O)c2ccccc21 [Enzastaurin] + NC(=O)c1ccc(N(C(N)=O)c2c(F)cccc2F)nc1-c1ccc(F)cc1F [VX702] (first compound 0.8 µM, partner dose 0.4 µM)",69.3,108,68.2,55.5,206,58.8,131,54.7
"O=c1[nH]nc(Sc2ncc([N+](=O)[O-])s2)n1-c1ccc2c(c1)OCCO2 + C[As](C)SC[C@H](NC(=O)CC[C@H](N)C(=O)O)C(=O)NCC(=O)O [Darinaparsin] (first compound 0.2 µM, partner dose 0.4 µM)",137,61.5,77.3,109,80.2,63.9,75.9,124

# Record cards, from the list above:
# Cn1cc(C2=C(c3cn(C4CCN(Cc5ccccn5)CC4)c4ccccc34)C(=O)NC2=O)c2ccccc21 [Enzastaurin] + Nc1nc(F)nc2c1ncn2[C@@H]1O[C@H](CO)[C@@H](O)[C@@H]1O [fludarabine] (first compound 0.8 µM, partner dose 0.2 µM) as listed: cleaved PARP positive nuclei fraction (MZ2-MEL) [%]: 72.5; cleaved PARP positive nuclei fraction (MeWo) [%]: 731; cleaved PARP positive nuclei fraction (RPMI7951) [%]: 94.5; cleaved PARP positive nuclei fraction (RVH-421) [%]: 37.9; cleaved PARP positive nuclei fraction (SkMel28) [%]: 52.4; cleaved PARP positive nuclei fraction (SkMel2) [%]: 487; cleaved PARP positive nuclei fraction (SkMel30) [%]: 416; cleaved PARP positive nuclei fraction (UACC62) [%]: 48.8
# CS(=O)(=O)c1ccc(C(=O)Nc2ccc(Cl)c(-c3ccccn3)c2)c(Cl)c1 [vismodegib] + C[As](C)SC[C@H](NC(=O)CC[C@H](N)C(=O)O)C(=O)NCC(=O)O [Darinaparsin] (first compound 1 µM, partner dose 0.4 µM) as listed: cleaved PARP positive nuclei fraction (MZ2-MEL) [%]: 94.8; cleaved PARP positive nuclei fraction (MeWo) [%]: 82.6; cleaved PARP positive nuclei fraction (RPMI7951) [%]: 80.5; cleaved PARP positive nuclei fraction (RVH-421) [%]: 39.5; cleaved PARP positive nuclei fraction (SkMel28) [%]: 76.3; cleaved PARP positive nuclei fraction (SkMel2) [%]: 179; cleaved PARP positive nuclei fraction (SkMel30) [%]: 156; cleaved PARP positive nuclei fraction (UACC62) [%]: 26
